In patent publication US6465220B1, “Glycosylation using GalNac-T4 transferase” (GlycoZym ApS, priority 1998, dated 2002):
Not every detail of the peptide structures is certain; ends, links or a residue may be inferred. Some results were stated once for a whole list of compounds, not compound by compound. Some ranges recur; such a range may be that of the whole group of compounds. Ends that are not written are not given here.

Sequences of proteins named here, by UniProt entry; tags and fusion partners are left off. Residues count along the entry.
UniProt Q10471, 52-571 limits assumed: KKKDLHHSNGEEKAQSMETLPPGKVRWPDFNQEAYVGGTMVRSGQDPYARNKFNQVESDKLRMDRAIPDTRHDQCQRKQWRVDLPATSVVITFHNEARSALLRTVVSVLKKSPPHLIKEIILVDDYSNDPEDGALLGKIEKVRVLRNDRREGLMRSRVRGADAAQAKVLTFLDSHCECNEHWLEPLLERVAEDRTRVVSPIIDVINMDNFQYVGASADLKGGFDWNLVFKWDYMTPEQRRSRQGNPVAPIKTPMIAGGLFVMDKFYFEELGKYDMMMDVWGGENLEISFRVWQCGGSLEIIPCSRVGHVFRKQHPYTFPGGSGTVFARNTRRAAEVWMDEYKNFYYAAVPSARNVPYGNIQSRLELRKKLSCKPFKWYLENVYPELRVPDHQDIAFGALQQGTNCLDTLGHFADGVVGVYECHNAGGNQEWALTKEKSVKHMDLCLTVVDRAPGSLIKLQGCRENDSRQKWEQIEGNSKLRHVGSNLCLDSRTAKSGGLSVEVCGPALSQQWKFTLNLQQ
UniProt Q8N4A0, 32-578 limits assumed: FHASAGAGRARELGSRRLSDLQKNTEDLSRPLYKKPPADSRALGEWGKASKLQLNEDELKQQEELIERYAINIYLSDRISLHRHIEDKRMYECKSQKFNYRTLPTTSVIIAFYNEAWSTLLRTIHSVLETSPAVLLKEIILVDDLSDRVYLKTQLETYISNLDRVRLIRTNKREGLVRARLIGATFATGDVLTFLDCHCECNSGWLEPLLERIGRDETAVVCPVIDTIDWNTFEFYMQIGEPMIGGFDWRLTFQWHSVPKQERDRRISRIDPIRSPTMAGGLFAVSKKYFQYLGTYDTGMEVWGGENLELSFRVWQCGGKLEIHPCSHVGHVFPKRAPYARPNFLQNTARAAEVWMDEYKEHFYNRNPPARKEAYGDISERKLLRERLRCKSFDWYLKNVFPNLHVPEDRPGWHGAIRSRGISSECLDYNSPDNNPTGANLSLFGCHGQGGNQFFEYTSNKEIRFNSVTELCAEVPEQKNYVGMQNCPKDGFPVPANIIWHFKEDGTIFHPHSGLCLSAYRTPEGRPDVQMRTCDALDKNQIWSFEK

Tests used:
Format in all cases: biochemical
[1] = biological target: T1, GalNAc-T2 (Homo sapiens, UniProt Q10471); test: GalNAc-transferase assay with purified recombinant GalNAc-T2
T1 construct: Control constructs pAcGP67-GalNAc-T1-sol, pAcGP67-GalNAc-T2-sol, pAcGP67-GalNAc-T3-sol, and pAcGP67-O^2-sol were prepared as previously described; made in house; host or cells: insect cells (baculovirus, pAcGP67)
Experimental: (§1) The following examples are provided to illustrate certain preferred embodiments of the invention, and should be considered as illustration and not as limitation. In the examples, GalNAc-transferase assays were performed in 50 μl total reaction mixtures containing 25 mM cacodylate (pH 7.5), 10 mM MnCl2, 0.1-0.25% Triton X-100, 150-200 μM UDP-[^14C]-GalNAc (4,000 cpm/nmole) (Amersham) and 0.06-1 mM acceptor peptides. Peptides were either synthesized or obtained from Carlbiotech (Copenhagen), or Neosystems (Strasbourg), and quality was ascertained by amino acid analysis and mass spectrometry. Peptides Muc-1a, Muc-1b, and TAP24, were derived from the tandem repeat of human MUC1, Gendler et al., J. Biol. Chem. 265:15286 (1990), and Muc2, Muc5AC, and Muc7 from the tandem repeats of MUC2, MUC5AC, and MUC7, respectively. Gum et al., J. Biol. Chem. 264:6480 (1989); Porchet et al., Biochem. Soc. Trans. 23:800 (1995); Bobek et al., J. Biol. Chem. 268:20563 (1993). GalNAc4TAP24 was produced by in vitro glycosylation using GalNAc-T2 as described in Wandall et al., J. Biol. Chem. 272:23503 (1997). Products were quantified by scintillation counting after chromatography on Dowex-1, octadecyl silica cartridges (Bakerbond), or HPLC (PC3.2/3 or mRPC C2/C18 SC2.1/10 Pharmacia, Smart System). Products produced by in vitro glycosylation were in most cases also confirmed by mass spectrometry.
In this example, GalNAc-T4 was expressed in Sf9 insect cells. Expression constructs designed to contain amino acid residues 32-578 of the coding sequence of the putative GalNAc-T4 gene shown in SEQ ID NO:1 prepared by genomic PCR of two clones containing GalNAc-T4 (described in Bennett et al. (1998), supra) were cloned into a BamHI site of the expression vector pAcGP67 (Pharmingen), and the expression construct was sequenced. The constructs pAcGP67-GalNAc-T4506Vsol and pAcGP67-GalNAc-T4506 I sol, were designed to yield a putative soluble form of the GalNAc-T4 protein with an N-terminal end positioned immediately C-terminal to a potential transmembrane domain and including the entire sequence expected to contain the catalytic domain. […]
Activities measured with the mucin derived substrates, Muc7, EA2, and Muc2 (see Table I for structures and SEQ ID NOs:19, 25 and 18, respectively), were only 2-7 fold over background values. […] GalNAc-T4 was expressed in High Five cells and purified to near homogeneity, however, very low endogenous activity was detected with some substrates in the same fractions when medium from cells infected with irrelevant expression constructs were used in the same purification strategy. The activities presented in Table I were obtained with purified GalNAc-T4 and -T2, and are expressed as mU/mg (the concentration of enzyme protein estimated by SDS-PAGE using BSA as standard). […]

[2] = biological target: T2, GalNAc-T4 (Homo sapiens, UniProt Q8N4A0); test: GalNAc-transferase assay with purified recombinant GalNAc-T4
T2 construct: made in house; host or cells: High Five insect cells (baculovirus, pAcGP67 vector)
Experimental: as §1, with “In” for “The following examples are provided to illustrate certain preferred embodiments of the invention, and should be considered as illustration and not as limitation. In”
In this example, GalNAc-T4 was expressed in Sf9 insect cells. Expression constructs designed to contain amino acid residues 32-578 of the coding sequence of the putative GalNAc-T4 gene shown in SEQ ID NO:1 prepared by genomic PCR of two clones containing GalNAc-T4 (described in Bennett et al. (1998), supra) were cloned into a BamHI site of the expression vector pAcGP67 (Pharmingen), and the expression construct was sequenced. The constructs pAcGP67-GalNAc-T4506Vsol and pAcGP67-GalNAc-T4506 I sol, were designed to yield a putative soluble form of the GalNAc-T4 protein with an N-terminal end positioned immediately C-terminal to a potential transmembrane domain and including the entire sequence expected to contain the catalytic domain. […] Res. Comm. 211:347 (1995).
The activities presented in Table I were obtained with purified GalNAc-T4 and -T2, and are expressed as mU/mg (the concentration of enzyme protein estimated by SDS-PAGE using BSA as standard).

[3] = biological target: T2, GalNAc-T4; test: Transferase assay on culture medium of Sf9 cells infected with pAcGP67-GalNAc-T4506Vsol; conditions: culture medium of infected Sf9 cells vs uninfected or O2 gene infected controls

Substance	GalNAc-T2 activity with acceptor peptide ([1]; 0.06 mM peptide in 50-μl assay) [milliunits/mg]	GalNAc-T2 activity with acceptor peptide ([1]; 0.25 mM peptide in 50-μl assay) [milliunits/mg]	GalNAc-T4 activity with acceptor peptide ([2]; 0.06 mM peptide in 50-μl assay) [milliunits/mg]	GalNAc-T4 activity with acceptor peptide ([2]; 0.25 mM peptide in 50-μl assay) [milliunits/mg]	concentration at which strong substrate inhibition was observed ([2]; GalNAc-T4)	GalNAc incorporated in exhaustively glycosylated peptide ([2]; mass spectrometry)	GalNAc-T4 activity with substrate (in words) ([2]; purified GalNAc-T4)	activity over background values [3]	specific activity of GalNAc-T4 ([2]; with Muc7) [U/mg]
Ac-QATEYEYLDYDFLPETEPPEM [PSGL-1b]	0.3 ± 0.02	0.3 ± 0.1	1.2 ± 0.1	1.4 ± 0.1	greater than 1 mM	single	low activity		
CPPTPSATTPAPPSSSAPPETTAA [Muc7]	737 ± 75	396 ± 34	21 ± 1	53 ± 2				2-7 fold	0.053
DSTTPAPTTK [EA2, mucin derived substrate]								2-7 fold	
PTTTPISTTTMVTPTPTPTC [Muc2, peptide from the tandem repeats of MUC2]								2-7 fold	
